The text below walks through data of patent US20240301030A1.

No constants are given. Whether binding was seen depends on the method and setting. For part of these data: In cells and extracts the contact can be indirect. Some entries that bind do so weakly or less than the wild type. For part of these data: Tags and fused reporters may be left off the sequences shown.

Assay [1] addresses full-length SORLA (human) (UniProt Q92673). In words: co-immunoprecipitation with anti-FLAG, WB with polyclonal anti-SORLA, lysates of co-transfected HEK293 cells.
Assay [2] concerns the target T1, myc-tagged SORLA 3Fn mini-receptor (human) (UniProt Q92673).
T1 sequence: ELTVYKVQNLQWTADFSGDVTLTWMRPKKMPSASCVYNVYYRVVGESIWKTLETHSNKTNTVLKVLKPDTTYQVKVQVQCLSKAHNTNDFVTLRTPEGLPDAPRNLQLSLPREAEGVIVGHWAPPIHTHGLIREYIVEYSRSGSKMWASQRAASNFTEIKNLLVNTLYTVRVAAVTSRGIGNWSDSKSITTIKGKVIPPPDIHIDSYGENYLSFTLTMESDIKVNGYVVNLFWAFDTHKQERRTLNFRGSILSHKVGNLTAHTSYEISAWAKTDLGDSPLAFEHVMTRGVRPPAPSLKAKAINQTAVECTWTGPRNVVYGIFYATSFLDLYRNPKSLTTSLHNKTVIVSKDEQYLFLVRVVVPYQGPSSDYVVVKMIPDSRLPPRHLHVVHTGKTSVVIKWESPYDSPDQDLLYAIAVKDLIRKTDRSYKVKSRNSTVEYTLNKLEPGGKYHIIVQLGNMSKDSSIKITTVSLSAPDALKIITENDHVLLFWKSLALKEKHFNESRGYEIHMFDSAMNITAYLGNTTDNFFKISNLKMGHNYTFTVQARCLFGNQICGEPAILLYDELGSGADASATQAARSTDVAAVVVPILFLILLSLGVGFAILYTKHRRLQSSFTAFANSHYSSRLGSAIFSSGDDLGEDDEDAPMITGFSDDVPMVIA
Put plainly: co-immunoprecipitation with anti-FLAG, WB anti-myc, lysates of co-transfected HEK293 cells.

For assay [3], the target named is soluble 3Fn minireceptor with six 3Fn-domains (human) (UniProt Q92673). In words: WB (anti-FLAG) after SDS-PAGE without reducing agent, transfected CHO cells.

B1: FLAG-tagged SORLA 3Fn mini-receptor (receptor)
chain: DYKDHDGDYKDHDIDYKDDDDKELTVYKVQNLQWTADFSGDVTLTWMRPKKMPSASCVYNVYYRVVGESIWKTLETHSNKTNTVLKVLKPDTTYQVKVQVQCLSKAHNTNDFVTLRTPEGLPDAPRNLQLSLPREAEGVIVGHWAPPIHTHGLIREYIVEYSRSGSKMWASQRAASNFTEIKNLLVNTLYTVRVAAVTSRGIGNWSDSKSITTIKGKVIPPPDIHIDSYGENYLSFTLTMESDIKVNGYVVNLFWAFDTHKQERRTLNFRGSILSHKVGNLTAHTSYEISAWAKTDLGDSPLAFEHVMTRGVRPPAPSLKAKAINQTAVECTWTGPRNVVYGIFYATSFLDLYRNPKSLTTSLHNKTVIVSKDEQYLFLVRVVVPYQGPSSDYVVVKMIPDSRLPPRHLHVVHTGKTSVVIKWESPYDSPDQDLLYAIAVKDLIRKTDRSYKVKSRNSTVEYTLNKLEPGGKYHIIVQLGNMSKDSSIKITTVSLSAPDALKIITENDHVLLFWKSLALKEKHFNESRGYEIHMFDSAMNITAYLGNTTDNFFKISNLKMGHNYTFTVQARCLFGNQICGEPAILLYDELGSGADASATQAARSTDVAAVVVPILFLILLSLGVGFAILYTKHRRLQSSFTAFANSHYSSRLGSAIFSSGDDLGEDDEDAPMITGFSDDVPMVIA
As for B1, the binding result in assay [1] and in assay [2] was “binds” each time.

B2: soluble 3Fn minireceptor with six 3Fn-domains (receptor)
chain: DYKDHDGDYKDHDIDYKDDDDKELTVYKVQNLQWTADFSGDVTLTWMRPKKMPSASCVYNVYYRVVGESIWKTLETHSNKTNTVLKVLKPDTTYQVKVQVQCLSKAHNTNDFVTLRTPEGLPDAPRNLQLSLPREAEGVIVGHWAPPIHTHGLIREYIVEYSRSGSKMWASQRAASNFTEIKNLLVNTLYTVRVAAVTSRGIGNWSDSKSITTIKGKVIPPPDIHIDSYGENYLSFTLTMESDIKVNGYVVNLFWAFDTHKQERRTLNFRGSILSHKVGNLTAHTSYEISAWAKTDLGDSPLAFEHVMTRGVRPPAPSLKAKAINQTAVECTWTGPRNVVYGIFYATSFLDLYRNPKSLTTSLHNKTVIVSKDEQYLFLVRVVVPYQGPSSDYVVVKMIPDSRLPPRHLHVVHTGKTSVVIKWESPYDSPDQDLLYAIAVKDLIRKTDRSYKVKSRNSTVEYTLNKLEPGGKYHIIVQLGNMSKDSSIKITTVSLSAPDALKIITENDHVLLFWKSLALKEKHFNESRGYEIHMFDSAMNITAYLGNTTDNFFKISNLKMGHNYTFTVQARCLFGNQICGEPAILLYDELGS
For the molecule B2, in assay [3], the binding entry is “binds”.
